Test results from patent US20250242062A1 (VANDERBILT UNIVERSITY, published 2025).
Results are given in words; binding and its absence hold for the method and conditions named. Some results given as binding are weak or reduced against the parent protein; the word gives no strength.

T1: murine COX-2 (mCOX-2) enzyme (murine, UniProt Q05769 18-604)
T1 sequence (looked up): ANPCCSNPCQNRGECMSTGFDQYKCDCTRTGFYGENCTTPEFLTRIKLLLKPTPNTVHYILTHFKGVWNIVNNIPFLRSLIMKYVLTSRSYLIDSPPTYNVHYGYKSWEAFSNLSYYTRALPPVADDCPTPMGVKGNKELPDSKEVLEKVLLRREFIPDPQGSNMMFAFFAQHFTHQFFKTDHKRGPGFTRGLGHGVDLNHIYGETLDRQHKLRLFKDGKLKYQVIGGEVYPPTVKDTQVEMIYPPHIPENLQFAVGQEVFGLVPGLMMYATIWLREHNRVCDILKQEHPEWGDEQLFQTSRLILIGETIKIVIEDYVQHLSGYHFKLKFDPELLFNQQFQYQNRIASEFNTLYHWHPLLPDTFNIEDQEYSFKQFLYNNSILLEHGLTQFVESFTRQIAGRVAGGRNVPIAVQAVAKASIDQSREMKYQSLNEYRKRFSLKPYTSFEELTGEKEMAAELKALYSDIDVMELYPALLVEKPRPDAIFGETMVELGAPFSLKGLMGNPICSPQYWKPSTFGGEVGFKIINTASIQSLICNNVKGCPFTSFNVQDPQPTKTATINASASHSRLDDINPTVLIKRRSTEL

B1: A7-NIR664 nanobody conjugate (VHH)
VHH: QVQLQESGGGLVQPGGSLKLSCAASGSIFSINVMGWYRQAPGKQRELVATITSGGTTNYADSVKGRFTISRDNAKDTLYLQMNSLKPEDTAVYYCNAKDLGGSSWFSEFDYWGQGTQVTVGP
modifications: NIR664 fluorophore conjugated to the N-terminus end
B2: A7 nanobody (VHH)
VHH: QVQLQESGGGLVQPGGSLKLSCAASGSIFSINVMGWYRQAPGKQRELVATITSGGTTNYADSVKGRFTISRDNAKDTLYLQMNSLKPEDTAVYYCNAKDLGGSSWFSEFDYWGQGTQVTVGP
notes: Alpaca-derived VHH expressed in E. coli and purified by SEC; The stated molecular weight is 15.24 kDa; also called native A7 nanobody clone

What was measured:
[1] = target: T1, murine COX-2 (mCOX-2) enzyme; assay: summary statement in the abstract of Example 1
[2] = target: T1, murine COX-2 (mCOX-2) enzyme; assay: fluorescence microscopy of KLA-activated (COX-2-expressing) RAW264.7 cells with 200 nM A7-NIR664; non-activated cells without COX-2 were not labeled
[3] = target: T1, murine COX-2 (mCOX-2) enzyme; assay: phage display selection and MST, as told in the discussion of Example 1

Row | Binder | binding [1] | binding [2] | binding [3]
1 | B1 | binds | binds | 
2 | B2 |  |  | binds
